# Test results as given in the supplement of paper PMC4604168 (melanoma cell lines).
# Some of the results follow. Repeats are few or missing, and single values can be far off.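 Cells were imaged in 1,536-well plates, and nuclei stained with an antibody against cleaved PARP were counted against all DNA-stained nuclei to give the apoptosis fraction. Screening doses were chosen to leave most cells alive, and resting and induced cleaved-PARP levels differ strongly between cell lines.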
# Key:
# Test in all cases: cleaved PARP positive nuclei fraction relative to DMSO control; melanoma cells; higher = more apoptosis
# Conditions in all cases: library dose: low library concentration; 72 h
# MZ2-MEL = test system: MZ2-MEL
# MeWo = test system: MeWo
# RPMI7951 = test system: RPMI7951
# RVH-421 = test system: RVH-421
# SkMel28 = test system: SkMel28
# SkMel30 = test system: SkMel30
# SkMel5 = test system: SkMel5
# UACC257 = test system: UACC257
# UACC62 = test system: UACC62
Structure (SMILES),cleaved PARP positive nuclei fraction (MZ2-MEL) [%],cleaved PARP positive nuclei fraction (MeWo) [%],cleaved PARP positive nuclei fraction (RPMI7951) [%],cleaved PARP positive nuclei fraction (RVH-421) [%],cleaved PARP positive nuclei fraction (SkMel28) [%],cleaved PARP positive nuclei fraction (SkMel30) [%],cleaved PARP positive nuclei fraction (SkMel5) [%],cleaved PARP positive nuclei fraction (UACC257) [%],cleaved PARP positive nuclei fraction (UACC62) [%]
"Cc1ccc(NC(=O)c2cccc(N(C)C)c2)cc1NC(=O)c1ccc(O)cc1 + O=C(Oc1ccc([N+](=O)[O-])cc1)N1CCC(C(O)(c2ccc3c(c2)OCO3)c2ccc3c(c2)OCO3)CC1 [JZL184] (first compound 2 µM, partner dose 1 µM)",107,230,94.5,53.3,64.7,62.1,38.8,52.5,40.8
"N#Cc1c(O)c2c(-c3ccc(-c4ccccc4O)cc3)csc2[nH]c1=O + O=C(Oc1ccc([N+](=O)[O-])cc1)N1CCC(C(O)(c2ccc3c(c2)OCO3)c2ccc3c(c2)OCO3)CC1 [JZL184] (first compound 2 µM, partner dose 1 µM)",68,89.7,147,40.9,71.9,22,75.9,131,73.1
"COc1cc(Nc2ncc(F)c(Nc3ccc4c(n3)NC(=O)C(C)(C)O4)n2)cc(OC)c1OC [Tamatinib] + O=C(Oc1ccc([N+](=O)[O-])cc1)N1CCC(C(O)(c2ccc3c(c2)OCO3)c2ccc3c(c2)OCO3)CC1 [JZL184] (first compound 0.4 µM, partner dose 1 µM)",85.8,52.9,43.3,126,171,167,32.4,175,41.7
"COc1cc(Nc2ncc(F)c(Nc3ccc4c(n3)NC(=O)C(C)(C)O4)n2)cc(OC)c1OC [Tamatinib] + C/C(O)=C(\C#N)C(=O)Nc1cc(Br)ccc1Br [LFM-A13] (first compound 0.4 µM, partner dose 2 µM)",122,252,92.9,43.6,170,59.9,270,215,51.5
"C[As](C)SC[C@H](NC(=O)CC[C@H](N)C(=O)O)C(=O)NCC(=O)O [Darinaparsin] + Oc1nc(-c2ccc(C(F)(F)F)cc2)nc2c1CSCC2 [XAV939] (first compound 0.4 µM, partner dose 2 µM)",226,100,135,24.5,226,19.3,31.4,89,55.4
"C=CCn1c(=O)c2cnc(Nc3ccc(N4CCN(C)CC4)cc3)nc2n1-c1cccc(C(C)(C)O)n1 + Cc1cc(SCc2sc(-c3ccc(C(F)(F)F)c(F)c3)nc2C)ccc1OCC(=O)O [GW0742] (first compound 0.02 µM, partner dose 2 µM)",88.9,40.7,148,36.6,206,411,68.8,211,186
"O=C(O)C(=O)Nc1sc2c(c1C(=O)O)CCNC2 + O=C(Oc1ccc([N+](=O)[O-])cc1)N1CCC(C(O)(c2ccc3c(c2)OCO3)c2ccc3c(c2)OCO3)CC1 [JZL184] (first compound 1.66667 µM, partner dose 1 µM)",74.1,23.4,88.1,84.8,74.5,107,69.7,138,74.4
"CC(C)(C)c1cnc(CSc2cnc(NC(=O)C3CCNCC3)s2)o1 + Cc1cc(SCc2sc(-c3ccc(C(F)(F)F)c(F)c3)nc2C)ccc1OCC(=O)O [GW0742] (first compound 0.01 µM, partner dose 2 µM)",169,105,380,116,136,21.5,82,165,82.7
"O=C(Oc1ccc([N+](=O)[O-])cc1)N1CCC(C(O)(c2ccc3c(c2)OCO3)c2ccc3c(c2)OCO3)CC1 + O=c1cc(-c2cccc3c2Sc2ccccc2S3)oc(N2CCOCC2)c1 [KU55933] (first compound 1 µM, partner dose 1 µM)",76.1,188,40.7,93.7,167,264,62.1,129,178
"C[C@]12O[C@H](C[C@]1(O)CO)n1c3ccccc3c3c4c(c5c6ccccc6n2c5c31)CNC4=O [Lestaurtinib] + O=c1cc(-c2cccc3c2Sc2ccccc2S3)oc(N2CCOCC2)c1 [KU55933] (first compound 0.004 µM, partner dose 1 µM)",119,88.7,75.2,174,269,84.7,73.3,122,177
"O=C(Nc1ccccc1)c1cc([N+](=O)[O-])ccc1Cl + C/C(O)=C(\C#N)C(=O)Nc1cc(Br)ccc1Br [LFM-A13] (first compound 2 µM, partner dose 2 µM)",254,34.2,142,45.3,262,10.4,64,225,41
"C[C@]12O[C@H](C[C@]1(O)CO)n1c3ccccc3c3c4c(c5c6ccccc6n2c5c31)CNC4=O [Lestaurtinib] + NCC(=O)Nc1ccc(-n2nc(C(F)(F)F)cc2-c2ccc3c(ccc4ccccc43)c2)cc1 [OSU03012] (first compound 0.004 µM, partner dose 1 µM)",97.3,117,80.1,73.3,90,110,49.6,150,113
"C[As](C)SC[C@H](NC(=O)CC[C@H](N)C(=O)O)C(=O)NCC(=O)O [Darinaparsin] + CCc1ccc(CCOc2ccc(CC3SC(=O)NC3=O)cc2)nc1 [pioglitazone] (first compound 0.4 µM, partner dose 2 µM)",85.8,38.7,459,164,202,114,84,118,158
"C[As](C)SC[C@H](NC(=O)CC[C@H](N)C(=O)O)C(=O)NCC(=O)O [Darinaparsin] + O=c1cc(-c2cccc3c2Sc2ccccc2S3)oc(N2CCOCC2)c1 [KU55933] (first compound 0.4 µM, partner dose 1 µM)",29.3,74.4,86,104,110,188,64.6,83.1,82.9
"C[C@]12O[C@H](C[C@]1(O)CO)n1c3ccccc3c3c4c(c5c6ccccc6n2c5c31)CNC4=O [Lestaurtinib] + O=S(=O)(c1ccccc1)N(CC(F)(F)F)c1ccc(C(O)(C(F)(F)F)C(F)(F)F)cc1 [T0901317] (first compound 0.004 µM, partner dose 1.4 µM)",74.2,21.5,64.8,160,203,58,155,82.1,90
"CC1(C)NC(=O)N(c2ccc([N+](=O)[O-])c(C(F)(F)F)c2)C1=O [nilutamide] + C/C(O)=C(\C#N)C(=O)Nc1cc(Br)ccc1Br [LFM-A13] (first compound 1 µM, partner dose 2 µM)",68.2,122,81.3,45.3,56.1,81,39.6,164,81.9
"CO[C@@H]1[C@H](N(C)C(=O)c2ccccc2)C[C@H]2O[C@]1(C)n1c3ccccc3c3c4c(c5c6ccccc6n2c5c31)C(=O)NC4 [Midostaurin] + C/C(O)=C(\C#N)C(=O)Nc1cc(Br)ccc1Br [LFM-A13] (first compound 0.08 µM, partner dose 2 µM)",97.2,125,106,93.1,156,42.3,32.7,84.6,92.9
"O=C(CCCCCCC(=O)Nc1ccccc1)NO [vorinostat] + C/C(O)=C(\C#N)C(=O)Nc1cc(Br)ccc1Br [LFM-A13] (first compound 0.08 µM, partner dose 2 µM)",98,56.2,40.7,94,201,17.5,89,164,49.4
"Cc1cc(SCc2sc(-c3ccc(C(F)(F)F)c(F)c3)nc2C)ccc1OCC(=O)O + Cn1cc(/C=C2\C(=O)Nc3cccnc32)c2ccccc21 [GW441756] (first compound 2 µM, partner dose 0.4 µM)",41,56.6,39.2,47.7,110,45.1,446,135,112
"C/C(O)=C(\C#N)C(=O)Nc1cc(Br)ccc1Br + O=C1NC(=O)/C(=C/c2ccc(-c3ccc(F)cc3O)o2)S1 [AS252424] (first compound 2 µM, partner dose 1 µM)",54.3,139,39.5,78.5,98.6,42.7,84.8,79.8,98.1
"C[C@]12O[C@H](C[C@]1(O)CO)n1c3ccccc3c3c4c(c5c6ccccc6n2c5c31)CNC4=O [Lestaurtinib] + COc1ccc(COc2ccc(Cc3cnc(N)nc3N)cc2OC)cc1 [GW2580] (first compound 0.004 µM, partner dose 1 µM)",83.5,73.1,68.1,72.9,122,115,36.9,214,158
"Oc1cc(-c2nc(-c3ccccc3)[nH]c2-c2ccncc2)ccc1Cl + C/C(O)=C(\C#N)C(=O)Nc1cc(Br)ccc1Br [LFM-A13] (first compound 0.2 µM, partner dose 2 µM)",89.4,142,85.2,59.4,215,70.9,29.4,75.4,129
"C/C(O)=C(\C#N)C(=O)Nc1cc(Br)ccc1Br + Cc1cc([N+](=O)[O-])ccc1NS(=O)(=O)c1cc(Cl)ccc1Cl [FH535] (first compound 2 µM, partner dose 1 µM)",87.4,60.5,87,84.1,114,239,136,133,182

# Complete entries, quoted from the list. Values in the order: cleaved PARP positive nuclei fraction (MZ2-MEL) [%] | cleaved PARP positive nuclei fraction (MeWo) [%] | cleaved PARP positive nuclei fraction (RPMI7951) [%] | cleaved PARP positive nuclei fraction (RVH-421) [%] | cleaved PARP positive nuclei fraction (SkMel28) [%] | cleaved PARP positive nuclei fraction (SkMel30) [%] | cleaved PARP positive nuclei fraction (SkMel5) [%] | cleaved PARP positive nuclei fraction (UACC257) [%] | cleaved PARP positive nuclei fraction (UACC62) [%]
# O=C(Nc1ccccc1)c1cc([N+](=O)[O-])ccc1Cl + C/C(O)=C(\C#N)C(=O)Nc1cc(Br)ccc1Br [LFM-A13] (first compound 2 µM, partner dose 2 µM) reads 254 | 34.2 | 142 | 45.3 | 262 | 10.4 | 64 | 225 | 41
# Oc1cc(-c2nc(-c3ccccc3)[nH]c2-c2ccncc2)ccc1Cl + C/C(O)=C(\C#N)C(=O)Nc1cc(Br)ccc1Br [LFM-A13] (first compound 0.2 µM, partner dose 2 µM) reads 89.4 | 142 | 85.2 | 59.4 | 215 | 70.9 | 29.4 | 75.4 | 129
